In publication PMC8479171:
These are yes or no findings as the source states them, for the method shown. Binding seen in cells or lysates may run through a third protein. Binding can be weak; no strength is given. For part of these data: Tags and fused reporters may be left off the sequences shown. Each block holds one molecule with its values, some of them ahead of it.

Experiments:
[1] = biological target: T1, Gimap5 (GTPase of immunity-associated protein 5), over-expressed from pcDNA3.1-Gimap5/3×Flag-EGFP (human) (UniProt Q96F15); assay: co-IP; reciprocal: IP with Gimap5 antibody blotted for M6PR, IP with M6PR antibody blotted for Gimap5; cells by the methods Beas-2b and PC9 with Gimap5 overexpression
T1 sequence: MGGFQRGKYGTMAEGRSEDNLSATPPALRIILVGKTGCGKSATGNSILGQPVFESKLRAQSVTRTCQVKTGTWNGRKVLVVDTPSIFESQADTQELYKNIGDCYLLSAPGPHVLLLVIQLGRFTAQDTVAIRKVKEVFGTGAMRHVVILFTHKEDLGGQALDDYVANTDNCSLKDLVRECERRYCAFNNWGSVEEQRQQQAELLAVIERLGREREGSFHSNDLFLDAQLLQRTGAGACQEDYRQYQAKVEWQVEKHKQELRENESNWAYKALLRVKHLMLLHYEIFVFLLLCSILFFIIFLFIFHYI

[2] = biological target: M6PR (mannose 6-phosphate receptor) (human (endogenous in Beas-2b and PC9)); assay: co-IP; total protein of Beas-2b; IP of M6PR, western blot with anti-Gimap5 antibody
[3] = biological target: M6PR (mannose 6-phosphate receptor) (human (endogenous in Beas-2b and PC9)); assay: co-IP; reciprocal: IP with Gimap5 antibody blotted for M6PR, IP with M6PR antibody blotted for Gimap5; cells by the methods Beas-2b and PC9 with Gimap5 overexpression

binding [1]: binds
Molecule: M6PR (mannose 6-phosphate receptor) (human (endogenous in Beas-2b and PC9))

binding [2]: binds
B1: Gimap5, endogenous in Beas-2b cells (protein, UniProt Q96F15 1-307)
chain: MGGFQRGKYGTMAEGRSEDNLSATPPALRIILVGKTGCGKSATGNSILGQPVFESKLRAQSVTRTCQVKTGTWNGRKVLVVDTPSIFESQADTQELYKNIGDCYLLSAPGPHVLLLVIQLGRFTAQDTVAIRKVKEVFGTGAMRHVVILFTHKEDLGGQALDDYVANTDNCSLKDLVRECERRYCAFNNWGSVEEQRQQQAELLAVIERLGREREGSFHSNDLFLDAQLLQRTGAGACQEDYRQYQAKVEWQVEKHKQELRENESNWAYKALLRVKHLMLLHYEIFVFLLLCSILFFIIFLFIFHYI

binding [3]: binds
B2: Gimap5 (GTPase of immunity-associated protein 5), over-expressed from pcDNA3.1-Gimap5/3×Flag-EGFP (protein, UniProt Q96F15 1-307)
chain: MGGFQRGKYGTMAEGRSEDNLSATPPALRIILVGKTGCGKSATGNSILGQPVFESKLRAQSVTRTCQVKTGTWNGRKVLVVDTPSIFESQADTQELYKNIGDCYLLSAPGPHVLLLVIQLGRFTAQDTVAIRKVKEVFGTGAMRHVVILFTHKEDLGGQALDDYVANTDNCSLKDLVRECERRYCAFNNWGSVEEQRQQQAELLAVIERLGREREGSFHSNDLFLDAQLLQRTGAGACQEDYRQYQAKVEWQVEKHKQELRENESNWAYKALLRVKHLMLLHYEIFVFLLLCSILFFIIFLFIFHYI
